Measured values published in PubChem BioAssay AID504327 (National Center for Advancing Translational Sciences (NCATS), 2011).
About 820 (0.21%) of roughly 390,000 compounds were called active. Inconclusive results, whose numbers are uncertain, are shown with a selection of clear calls. Calls come from the whole dose curve; as a rule, active = well fitted inhibition curve with a large enough effect; inconclusive = small, poorly fitted or top-dose-only effect, or another doubt; inactive = no such curve, though single readings can be large or run the other way. A potency beside an inconclusive call is a rough fit, not a confirmed value.

The chains behind the UniProt entries cited, without tags or fusion partners.
UniProt Q92830, whole entry, looked up: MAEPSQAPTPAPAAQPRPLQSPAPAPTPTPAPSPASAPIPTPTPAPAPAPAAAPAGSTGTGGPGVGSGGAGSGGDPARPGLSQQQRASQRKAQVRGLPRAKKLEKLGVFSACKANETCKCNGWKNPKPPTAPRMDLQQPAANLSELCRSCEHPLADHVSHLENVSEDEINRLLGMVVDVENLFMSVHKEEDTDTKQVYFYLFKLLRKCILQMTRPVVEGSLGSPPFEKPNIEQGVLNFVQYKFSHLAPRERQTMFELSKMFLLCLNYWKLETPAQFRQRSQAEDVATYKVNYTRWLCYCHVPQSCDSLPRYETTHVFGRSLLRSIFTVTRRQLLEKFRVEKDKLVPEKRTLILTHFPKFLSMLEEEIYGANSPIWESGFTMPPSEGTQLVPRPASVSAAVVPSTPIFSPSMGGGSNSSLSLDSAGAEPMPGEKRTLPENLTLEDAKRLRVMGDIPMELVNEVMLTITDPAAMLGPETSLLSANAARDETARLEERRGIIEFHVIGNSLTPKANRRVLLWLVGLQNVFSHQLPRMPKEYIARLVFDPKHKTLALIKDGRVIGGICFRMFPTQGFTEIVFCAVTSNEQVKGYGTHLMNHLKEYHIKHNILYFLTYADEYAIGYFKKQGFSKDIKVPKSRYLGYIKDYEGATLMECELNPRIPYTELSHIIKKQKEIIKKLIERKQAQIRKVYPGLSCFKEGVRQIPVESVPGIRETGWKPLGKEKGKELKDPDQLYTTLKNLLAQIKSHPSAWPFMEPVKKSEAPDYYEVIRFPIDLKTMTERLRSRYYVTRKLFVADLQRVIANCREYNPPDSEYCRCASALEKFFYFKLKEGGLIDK

Target: Histone acetyltransferase KAT2A (Homo sapiens) (UniProt Q92830)
Assay: qHTS Assay for Inhibitors of GCN5L2
Details: GCN5L2 HAT assay, ThioGlo1 CoA-SH fluorescence; activity change, negative = inhibition: at 58.9 µM (top of the series) unless noted
How it was run: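 ThioGlo1-coupled HAT assay: 20nM GCN5L2, 70uM acetyl-CoA, 75uM H3(1-25) peptide, pH 7.5. Fluorescence read at 340/540nm at start and after 20 min at room temperature.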
% is set by controls: 0 for no effect and ±100 for the full control effect; potency is the fitted concentration of half-maximal effect.

Structure (SMILES) | Potency | activity change, negative = inhibition
COc1cccc(CN(C)C(=O)c2ccc(S(=O)(=O)Nc3ccccc3F)cc2)c1OC | inconclusive: 3.55 µM [inhibitor, partial curve] | –
Cc1ccc2c(c1)C(=O)[C@]1(O)CCN(c3ccccc3)C1=N2 | inconclusive: 22.4 µM [inhibitor, partial curve, poor fit] | –
Cc1ccccc1CN1CCN(CC(=O)NCc2ccccc2)C1=O | inconclusive: 0.891 µM [inhibitor, single point] | –
CCc1nnc(NC(=O)CSc2ccc(-c3nc4ccccc4[nH]3)cn2)s1 | inconclusive: 0.891 µM [inhibitor, full curve, poor fit] | –
Cc1ccccc1-n1c(C)cc(/C=C2/C(=N)N3C(c4ccccc4)=CSC3=NC2=O)c1C | – | inactive: -11.4%
c1ccc2c(c1)Cc1ccccc1O2 | inconclusive: 39.8 µM [inhibitor, single point] | –
COc1ccc(NC(=O)C2=C(C)NC(=O)NC2c2ccccc2[N+](=O)[O-])cc1 (configuration not stated) | inconclusive: 39.8 µM [inhibitor, single point] | –
CC(=O)c1sc(NC(=O)C2CCN(C(=O)c3ccccc3C)CC2)nc1-c1ccccc1 | – | inactive: -16.9%
CCOC(=O)C(=O)Nc1nnc(C2CCCCC2)s1 | – | inactive: -2.94%
COc1ccc(OCC(O)CN2CCCCCC2)cc1 (configuration not stated) | – | inactive: -7.43%
Cc1ccc(-c2c(C(=O)Nc3ccccc3C)c(C)[nH]c(=S)c2C#N)o1 | inconclusive: 39.8 µM [inhibitor, single point] | –
NCCCCCC(=O)O | inconclusive: 39.8 µM [inhibitor, single point] | –
Cc1ccc(-c2ccc(CCC(=O)O)n2-c2ccc(O)cc2)cc1 | inconclusive: 39.8 µM [inhibitor, single point] | –
COc1ccc(C(=O)/C=C/C(=O)N(CC(=O)NCCC(C)C)Cc2cccs2)c(O)c1 | – | inactive: 0.621%
Cc1cc(C)n2c(SCC(=O)N(C)C3CCS(=O)(=O)C3)nnc2n1 (configuration not stated) | inconclusive: 3.98 µM [inhibitor, single point] | –
Cc1ccc(S(=O)(=O)N/N=C\c2ccc3c(c2)OCO3)c(C)c1 | inconclusive: 20 µM [inhibitor, single point] | –
CN(C)Cc1c(O)ccc2cc(-c3nc4ccccc4n3C)c(=O)oc12 | inconclusive: 25.1 µM [inhibitor, partial curve] | –
Cc1nn(CC(=O)N2CCN(c3ccccc3)CC2)c(=O)c2ccccc12 | inconclusive: 3.16 µM [inhibitor, partial curve] | –
C[C@@]12CCc3occc3[C@H]1CC[C@]13CC(=O)[C@@H](CC[C@H]12)C3 | inconclusive: 0.141 µM [inhibitor, full curve, poor fit] | –
Cc1ccc(S(=O)(=O)NC2CCCc3ccccc32)cc1C (configuration not stated) | – | inconclusive: -98% [inhibitor] [at 0.501 µM]
CCc1sc(C(=O)N2CCCN(C)CC2)cc1Br | inconclusive: 8.91 µM [inhibitor, full curve] | –
Cc1ccc(-c2onc(C)c2C)cc1S(=O)(=O)NCc1ccc(N(C)C)cc1 | – | inactive: 11.4%
O=C(NCc1ccc2c(c1)OCO2)C1CC(=O)N(C2CCCC2)C1 (configuration not stated) | inconclusive: 0.355 µM [inhibitor, partial curve, poor fit] | –

Structure (SMILES) | Potency | activity change, negative = inhibition
COc1ccc(N(C(=O)C2CSC(=O)C2)C(C(=O)NC(C)(C)C)c2ccncc2)cc1 (configuration not stated) | inconclusive: 6.31 µM [inhibitor, single point] | –
O=C(c1ccc2nc(N3CCCCC3)sc2c1)N1CCN(Cc2ccc3c(c2)OCO3)CC1 | inconclusive: 39.8 µM [inhibitor, single point] | –
COc1ccc2c(c1)CCc1sc(NC(=O)c3cccc(Br)c3)nc1-2 | – | inactive: -17.7%
Cc1ccc(Cl)cc1NC(=O)CCC(=O)O | inconclusive: 39.8 µM [inhibitor, single point] | –
S=c1[nH]nc(-c2cc(-c3ccccc3)n[nH]2)n1/N=C/C(Br)=C/c1ccccc1 | inconclusive: 5.62 µM [inhibitor, partial curve, poor fit] | –
O=C(O[C@@H]1OC2COC(=O)c3cc(O)c(O)c(O)c3-c3c(cc(O)c(O)c3O)C(=O)O[C@@H]([C@H]1O)[C@@H]2O)c1cc(O)c(O)c(O)c1 | inconclusive: 31.6 µM [inhibitor, single point] | –
CCOc1ncccc1C(=O)OCC(=O)NCCc1ccccc1 | inconclusive: 39.8 µM [inhibitor, single point] | –
COc1ccc2c(c1)CC/C(=C\c1ccc(OC)c(Cn3cccn3)c1)C2=O | – | inactive: -15.2%
COc1cc(C(=O)Nc2cccc(-c3nc4cc(C)ccc4o3)c2)cc(OC)c1OC | inconclusive: 31.6 µM [inhibitor, single point] | –
CC(C)CC(=O)NC1(C(F)(F)F)C(=O)N(Cc2ccccc2)C2=C1C(=O)CC(C)(C)C2 (configuration not stated) | inconclusive: 35.5 µM [inhibitor, single point] | –
CCN(CC)c1cc(C)c2cc(NC(=O)CNC(C)=O)ccc2n1 | – | inactive: -3.94%
O=C1CSC(c2ccccc2)N1CC12CC3CC(CC(O)(C3)C1)C2 (configuration not stated) | inconclusive: 39.8 µM [inhibitor, single point] | –
CC(=O)Nc1ccc(S(=O)(=O)NCCc2ccc(S(N)(=O)=O)cc2)cc1 | – | inconclusive: -112% [inhibitor] [at 0.501 µM]
Cc1cc(C)c(N=Cc2c(O)c3ccccc3oc2=O)c(C)c1 | inconclusive: 28.2 µM [inhibitor, single point] | –
COc1ccc2cc3cc(C(=O)NCC4CCCO4)oc3nc2c1 (configuration not stated) | inconclusive: 4.47 µM [inhibitor, full curve, poor fit] | –
CC(=O)Oc1ccc(C(=O)Nc2cccc(C(=O)NC(C)(C)C)c2)cc1 | – | inactive: -4.44%
CCOc1cccc(CNC(=O)c2ccc(N3CCCC3)c(NC(=O)NCc3ccccc3)c2)c1 | inconclusive: 25.1 µM [inhibitor, single point] | –
COc1cccc(CN2CCC(n3nccc3NC(=O)CCCc3ccccc3)CC2)c1O | inconclusive: 1.12 µM [inhibitor, full curve, poor fit] | –
COc1cc(C=O)ccc1OCCOCCOc1cc(C)ccc1Cl | inconclusive: 0.631 µM [inhibitor, single point] | –
COc1ccc2oc(C(=O)NNC(=O)c3ccc(F)cc3)c(C)c2c1 | inconclusive: 39.8 µM [inhibitor, single point] | –
COc1ccc(CCNC(=O)CCc2nnc(Cc3ccc4c(c3)OCO4)o2)c(OC)c1 | inconclusive: 39.8 µM [inhibitor, single point] | –
Cc1cc(OC(C)C(=O)N(Cc2ccc(N(C)C)cc2)Cc2ccco2)ccc1Cl (configuration not stated) | – | inactive: -2.61%
CC(=O)O[C@]1(C(C)=O)CC[C@H]2[C@@H]3C=C(Cl)C4=CC(=O)CC[C@]4(C)[C@H]3CC[C@@]21C | inactive | –

Looked up by structure from above (4):
Structure (SMILES) | Potency | activity change, negative = inhibition
CCOc1ncccc1C(=O)OCC(=O)NCCc1ccccc1 | inconclusive: 39.8 µM [inhibitor, single point] | –
CC(=O)Oc1ccc(C(=O)Nc2cccc(C(=O)NC(C)(C)C)c2)cc1 | – | inactive: -4.44%
CCN(CC)c1cc(C)c2cc(NC(=O)CNC(C)=O)ccc2n1 | – | inactive: -3.94%
Cc1cc(C)c(N=Cc2c(O)c3ccccc3oc2=O)c(C)c1 | inconclusive: 28.2 µM [inhibitor, single point] | –

Further results.

Structure (SMILES) | Potency | activity change, negative = inhibition
COc1cc(C(=O)Nc2ccc3ccccc3c2)cc(OC)c1OC | inconclusive: 0.141 µM [inhibitor, full curve, poor fit] | –
O=C(Nc1sc2c(c1C(=O)O)CCCC2)C(=O)N1CCOCC1 | – | inactive: -6.27%
N#Cc1ccsc1NC(=O)COc1ccc(-c2nnco2)cc1 | – | inactive: -2.05%
CCCOc1ccc2nc(C)c(CCC)c(SC(=N)N)c2c1 | inconclusive: 3.16 µM [inhibitor, single point] | –
COc1ccc(CNC(=O)C(=O)NCC2OCCCN2S(=O)(=O)c2cccs2)cc1 (configuration not stated) | inconclusive: 7.94 µM [inhibitor, single point] | –
CC(C)(C)NC(=O)NC(=O)COC(=O)CNC(=O)c1cccc(F)c1 | inconclusive: 22.4 µM [inhibitor, partial curve] | –
CCS(=O)(=O)Nc1cccc(-c2nc3cccnc3s2)c1 | inconclusive: 8.91 µM [inhibitor, single point] | –
COc1cc(C2Nc3cc(Cl)c(S(N)(=O)=O)cc3S(=O)(=O)N2)cc(OC)c1OC (configuration not stated) | – | inactive: 0.169%
CC1=CC2=NC(=O)CC(C)(C(=O)N(CC(=O)NC3CCCC3)c3cc(C)cc(C)c3)N2C=C1 (configuration not stated) | – | inactive: 0.598%
COC/C=C/C1=CC2=CC(=O)C(C)(OC(=O)c3cnc4ccccc4n3)C(=O)C2=CN1c1ccc(CO)cc1 (configuration not stated) | inconclusive: 11.2 µM [inhibitor, partial curve] | –
Cc1ccccc1NS(=O)(=O)c1cc2c(cc1C)NC(=O)CO2 | inconclusive: 3.16 µM [inhibitor, partial curve, poor fit] | –
O=S(=O)(Nc1ccon1)c1ccc(Br)cc1 | inconclusive: 0.708 µM [inhibitor, single point] | –
O=C(Cc1ccccc1Cl)Nc1ccc(S(=O)(=O)Nc2nccs2)cc1 | – | inactive: -24.1%
Cc1ccccc1-n1c(SC/C(O)=C(\C#N)c2nc3ccccc3[nH]2)nnc1-c1ccncc1 | – | inactive: -8.32%
Cc1cccc(/C=C(\C(=O)O)c2ccc(S(=O)(=O)N3CCCC3)s2)c1 | inconclusive: 17.8 µM [inhibitor, partial curve] | –
O=C(CSc1nncs1)NCCNC(=O)CSc1nncs1 | inconclusive: 22.4 µM [inhibitor, single point] | –
CC(C)(C)NCCOc1ccc2ccccc2c1 | inconclusive: 12.6 µM [inhibitor, partial curve, poor fit] | –
CCn1c(CC(=O)Nc2ccc(C)cc2)nnc1SCC(=O)Nc1nc(C)cs1 | inconclusive: 0.631 µM [inhibitor, single point] | –
CCOC(=O)c1noc2ncnc(Nc3cccc(OC)c3)c12 | inconclusive: 7.94 µM [inhibitor, single point] | –
CC1(C)CC(=O)C=C(NCC(O)c2ccccc2)C1 (configuration not stated) | – | inactive: -7.7%
O=C(CCCSc1ccc(Cl)cc1)Nc1cc(S(=O)(=O)N2CCOCC2)ccc1O | – | inactive: -28.9%
